# Data published in PubChem BioAssay AID1439 (NMMLSC, 2008).
# Chains of the proteins cited; added tags and fusions are not shown.
# UniProt P09471, whole entry, looked up: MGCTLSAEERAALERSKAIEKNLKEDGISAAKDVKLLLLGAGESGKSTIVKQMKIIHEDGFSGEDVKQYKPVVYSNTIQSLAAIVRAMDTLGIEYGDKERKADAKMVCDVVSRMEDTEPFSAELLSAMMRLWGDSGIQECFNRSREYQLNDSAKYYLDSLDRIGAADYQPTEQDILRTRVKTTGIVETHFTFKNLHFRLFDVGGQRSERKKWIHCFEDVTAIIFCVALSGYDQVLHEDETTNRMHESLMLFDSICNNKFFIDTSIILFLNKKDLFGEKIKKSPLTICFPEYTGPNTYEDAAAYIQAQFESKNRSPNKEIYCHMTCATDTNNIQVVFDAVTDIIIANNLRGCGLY
# Hit rate of the full screen: of about 220,000 compounds, about 770 (0.35%) were called active. Inconclusive results, whose numbers are uncertain, are shown with a selection of clear calls. No stated cut-off is given here; in the data, active means binding response below about 49% or above about 150%; inconclusive means no clear call, values can overlap the other calls; inactive means in between.
# Target: Guanine nucleotide-binding protein G(o) subunit alpha (Homo sapiens) (UniProt P09471)
# Assay: RGS7-Galphao binding modulators, primary screen, biochemical, multiplexed bead flow cytometry (AID 1439);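 further: fluorescent Galphao held in activated GDP-AlF4 state binding bead-coupled RGS7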
# Details: at 10 µM, actives lie on both sides
row,Structure (SMILES),binding response (% of control)
1,C#CCN1C(=O)C(O)(c2c(C)[nH]c3ccccc23)c2ccccc21 (centres undefined),inconclusive: 118%
2,CNC(=O)NNC(=O)c1nc(-c2ccccc2)c(C)o1,inconclusive: 88.8%
3,O=C(O)c1cnc(N2CCOCC2)nc1,inconclusive: 104%
4,COc1ccc(-c2cc(C(F)(F)F)c(C#N)c(=O)[nH]2)cc1,inconclusive: 97.2%
5,C/C(=N\NC(=O)c1ccc(N2CCCC2=O)cc1)c1ccncc1,inconclusive: 114%
6,COc1cccc2c(N/N=C/c3ccco3)cc(C)nc12,inconclusive: 95.9%
7,CC(C)(C)c1ccc(NC(=O)c2c(F)cccc2Cl)cc1,inconclusive: 90.2%
8,O=C(COC(=O)CCc1nc2ccccc2c(=O)[nH]1)Nc1ccc(Cl)cn1,inconclusive: -241%
9,CCOc1ccc(NC(=S)N2CCN(CCN3C(=O)c4cccc5cccc(c45)C3=O)CC2)cc1,inactive: 123%
10,C/C(=N\NC(=S)NCc1ccccc1)c1ccc(Br)cc1,inconclusive: 76.3%
11,CC(=O)c1csc(COc2ccc(Cl)cc2)n1,inconclusive: 76%
12,CC(=O)c1cccc(NC2c3ccccc3C(=O)N2Cc2ccco2)c1 (centres undefined),inconclusive: 98.8%
13,NC(=O)CCn1cnc2ccccc21,inconclusive: -40.8%
14,O=C(N/C(=C/c1cccc([N+](=O)[O-])c1)C(=O)N1CCCCC1)c1cccs1,inactive: 97.7%
15,COc1ccc(C(=O)C[n+]2cccc(Br)c2)cc1,inconclusive: 76.8%
16,CC12CCC(C(=O)NC3CCCCC3)([C@H](Br)C1=O)C2(C)C (some centres undefined),inconclusive: 105%
17,CCn1cc(C(=O)O)c(=O)c2cc(F)c(N3CCN(C(=S)NC(=O)c4ccc(Br)cc4)CC3)cc21,inconclusive: 89%
18,COC(=O)c1sccc1NC(=O)COc1ccc(F)cc1Cl,inactive: 105%
19,N/C(=N\OC(=O)c1cc(Br)ccc1Cl)c1cccnc1,inconclusive: 98.3%
20,Cn1nccc1NC(=O)Nc1cccc(Cl)c1,inconclusive: 93.2%
21,Cc1ccccc1S(=O)(=O)NCc1ccc(N2CCN(C)CC2)cc1,inconclusive: 1.17%
22,COc1ccc(NC(=O)Nc2nnc(-c3ccccc3F)s2)cc1,inconclusive: 87.3%
23,CC(=O)NS(=O)(=O)c1ccc(NC(=O)CSc2ccccc2)cc1,inconclusive: 71.7%
24,NNC(=O)c1cc2nc(-c3cccs3)cc(C(F)(F)F)n2n1,inconclusive: 107%

# Fetched by structure from the entries so far, four records:
row,Structure (SMILES),binding response (% of control)
9,CCOc1ccc(NC(=S)N2CCN(CCN3C(=O)c4cccc5cccc(c45)C3=O)CC2)cc1,inactive: 123%
7,CC(C)(C)c1ccc(NC(=O)c2c(F)cccc2Cl)cc1,inconclusive: 90.2%
2,CNC(=O)NNC(=O)c1nc(-c2ccccc2)c(C)o1,inconclusive: 88.8%
1,C#CCN1C(=O)C(O)(c2c(C)[nH]c3ccccc23)c2ccccc21 (centres undefined),inconclusive: 118%

# (list continues)

row,Structure (SMILES),binding response (% of control)
1,Cc1ccc(NC(=O)c2ccc([N+](=O)[O-])cc2Cl)nc1,inactive: 101%
2,COc1ccc(CC(=O)O/N=C(\N)c2ccncc2)cc1,inconclusive: 96%
3,COCCn1c(/C=C/c2ccccc2)nc2ccccc21,inconclusive: 130%
4,COc1ccc(C)cc1NC(=O)NNC(=O)C1CCC(C(C)(C)C)CC1 (centres undefined),inactive: 93.8%
5,O=C(COC(=O)c1cccc(O)c1)NCc1ccc2c(c1)OCO2,inconclusive: -67.7%
6,CCc1ccc(C(=O)NNc2ccc(C)c(Cl)c2)cc1,inconclusive: 118%
7,N#Cc1ccc(C(=O)CSc2nnc(-c3ccc(C(F)(F)F)cn3)s2)cc1,inconclusive: -49.4%
8,Cc1ccc(/C=C/C(=O)O)cc1S(=O)(=O)N1CCc2ccccc2C1,inconclusive: 113%
9,COc1ccc(C(=O)Nc2ccc(NS(=O)(=O)c3ccccc3)cc2)cc1OC,inconclusive: 70.1%
10,Cc1cc(C(=O)NC(Cc2ccccc2)C(=O)O)c(C)o1 (centres undefined),inconclusive: 92%
11,CC1CC(C)(C)n2c(O)c(N=NC(N)=S)c3cccc1c32 (centres undefined),inconclusive: 107%
12,CC(C)c1ccc[n+](-c2nc([O-])sc2C=O)c1,inconclusive: 43.5%
13,CCOC(=O)C1CC2CC(C1)CN(C(=O)C1CCCCC1)C2 (centres undefined),inconclusive: 94.5%
14,CCOC(=O)c1ccc(NC(=O)c2cc3c(s2)CCC3)cc1,inconclusive: 97.4%
15,COc1ccc([N+](=O)[O-])cc1NC(=O)CCNC(=O)Cn1ccc2ccccc2c1=O,inconclusive: 86.9%
16,O=c1[nH]ncc(N/N=C\c2cccnc2)c1Cl,inconclusive: 139%
17,NS(=O)(=O)c1ccc(NNC(=O)c2ccccc2C(=O)O)cc1,inconclusive: 106%
18,CCc1nc(SCC#N)c(C#N)cc1C,inconclusive: 93.3%
19,CCN(CC)S(=O)(=O)c1cccc(C(=O)NCCCn2ccnc2)c1,inconclusive: 187%
20,CCOC(=O)/C(C#N)=N/Nc1ccccc1C#N,inconclusive: 128%
21,COCc1cc(C)nc(OCC(=O)N/N=C/c2ccccc2O)c1C#N,inconclusive: 91.7%
22,COc1ccc(CNC(=O)COC(=O)CCC(=O)c2cccs2)cc1,inconclusive: 109%
23,CC(C)(CO)NCC(=O)Nc1cc(C(F)(F)F)cc(NC(=O)CNC(C)(C)CO)c1Cl,inactive: 101%
24,O=C1NN(c2ccccc2)C(=O)/C1=C/c1ccc(Sc2ccc(Cl)cc2)o1,inconclusive: 67.8%

row,Structure (SMILES),binding response (% of control)
1,COc1ccc(C2CC(c3ccccc3OC(=O)/C=C/c3ccccc3)=NN2C(C)=O)cc1 (centres undefined),inconclusive: 46.9%
2,O=C(N/N=C/c1cc(Br)ccc1O)c1ccncc1,inconclusive: 31.8%
3,COC(=O)CCC(=O)OC1(C)C(=O)C=C2C=C(C3CC3)N(Cc3ccccc3)C=C2C1=O (centres undefined),inconclusive: 85.1%
4,CC(=O)Oc1ccccc1-n1c(C)nc(=O)c(-c2ccccc2)c1C,inconclusive: 106%
5,O=C(O)c1ccc(OCc2cn3ccccc3n2)cc1,inconclusive: 114%
6,COCCN(CCOC)S(=O)(=O)c1ccc(C(=O)Nc2c(C)n(C)n(-c3ccccc3)c2=O)cc1,inconclusive: 96.2%
7,COc1cc(O)c(C(CC(=O)N2CCOCC2)c2ccc3c(c2)OCO3)c(OC)c1 (centres undefined),inconclusive: 129%
8,CCc1ccc2c(c1)/C(=N/OC)C(=O)N2,inactive: 102%
9,COC(=O)c1scc(S(=O)(=O)C(C)(C)C)c1-n1cccc1,inconclusive: 81.3%
10,Cc1nc2nc(SCc3nc4ccccc4[nH]3)[nH]c2cc1Br,inconclusive: 108%
11,Cc1ccc(N/C(CSC(N)=O)=N/S(=O)(=O)c2ccccc2)cc1,inactive: 90%
12,O=S(=O)(NC1CCCCC1)c1ccc(N2CCOCC2)nc1,inconclusive: 94.8%
13,O=C(COC(=O)c1cccs1)Nc1ccccc1[N+](=O)[O-],inconclusive: 116%
14,Cc1cc(C(=O)OCC(=O)NC(C)C)c2ccccc2n1,inconclusive: 70.9%
15,Cn1cnnc1SCC(=O)N1N=C(c2ccc(Cl)cc2)CC1c1ccco1 (centres undefined),inconclusive: 94.4%
16,CC1=C(C)CC2(SC1)C(=O)N(c1ccccc1)N=C2N (centres undefined),inactive: 97.2%
17,O=C(Nc1cc(Cl)ccc1Cl)c1noc2c1CCCC2,inconclusive: 59.6%
18,Cc1cc(C)n2nc(C(=O)N/N=C/C=C/c3ccccc3)nc2n1,inconclusive: 98%
19,c1ccc(-c2csc(Nc3ccc4c(c3)OCCO4)n2)cc1,active: 50%
20,Cc1cccc(CC2S/C(=N/c3cccc(C)n3)NC2=O)c1 (centres undefined),inconclusive: 74%
21,C[n+]1cccc(C(=O)NCC2CCCO2)c1 (centres undefined),inactive: 112%
22,CC(C)OC(=O)NC(Nc1ccccc1C(=O)O)(C(F)(F)F)C(F)(F)F,inconclusive: 113%
23,COc1cccc(NC(=S)Nc2ccc(Br)cc2Cl)c1,inconclusive: -2.13%
24,O=C(Nc1ccc(S(=O)(=O)N2CCOCC2)cc1)c1cccnc1,inconclusive: 238%

row,Structure (SMILES),binding response (% of control)
1,CCCCC(=O)Nc1ccccc1N1CCOCC1,inconclusive: 109%
2,C/C=C(/C)C(=O)Nc1cccc(C2=NOC3(C2)C[C@@H](C(N)=O)N(C(=O)CC(c2ccccc2)c2ccccc2)C3)c1 (some centres undefined),inconclusive: 131%
3,COc1ccc(CCNC(=O)c2ccc(N(C)S(=O)(=O)c3ccc(C)cc3)cc2)cc1,inconclusive: 106%
4,CCOC(=O)CC(NC(=O)c1ccc(C)cc1)c1ccc(OC)cc1 (centres undefined),inactive: 105%
5,O=[N+]([O-])c1ccc(OCC(O)CNC2CCCC2)cc1 (centres undefined),inconclusive: 124%
6,COc1ccccc1NS(=O)(=O)c1cc(NC(=O)c2[nH]c(C)c(C(C)=O)c2C)ccc1N1CCOCC1,inconclusive: 77.2%
7,Cc1nn(Cc2ccccc2)c(C)c1CCC(=O)O,inactive: 93.4%
8,CC(NCc1ccccc1OC1CCCC1)c1ccccc1 (centres undefined),inconclusive: 63.7%
9,CCCCN(C)C(=O)c1nc2ccccn2c1CNCCCn1ncc2ccccc21,inconclusive: 132%
10,COc1ccc2nc(/C=N/NC(=O)[C@H](C)NC(=O)OC(C)(C)C)ccc2c1,inactive: 95.4%
11,O=C(O)c1ccc2c(c1Nc1ccccc1)C(=O)c1ccccc1C2=O,inconclusive: 93%
12,COC(=O)CCCCCCCCC(O)CN1CCCCC1 (centres undefined),inactive: 102%
13,Cc1ccc(NC(=O)CN(C)CC(=O)Nc2ccccc2Oc2ccccc2)cc1,inconclusive: 87.2%
14,O=c1cc(C(F)(F)F)[nH]c2ccccc12,inconclusive: 75.4%
15,S=C(c1ccc2c(c1)OCO2)N1CCOCC1,inconclusive: 113%
16,CCOC(=O)N1CN(C(=O)OCC)CN(C(=O)OCC)C1,inconclusive: 192%
17,CCc1ccc(CN(C)Cc2nc(COc3ccccc3)no2)nc1,inconclusive: 112%
18,Cc1ccc(-c2n[nH]c(S(C)(=O)=O)c2C#N)cc1,inconclusive: 9.83%
19,COc1cc(/C=N/NC(=O)C(=O)NCc2ccco2)cc(Br)c1O,inconclusive: 91.1%
20,COc1ccc(N2CCN(C(CNC(=O)C(=O)NCc3ccncc3)c3ccco3)CC2)cc1 (centres undefined),inconclusive: 85.5%
21,N#Cc1cc(N)ccc1-n1cccc1,inconclusive: 109%
22,CCOC(=O)C1CCCN(C(=O)Cn2sc3nc(C)cc(C)c3c2=O)C1 (centres undefined),inactive: 95.3%
